Here are results for 1 molecule from paper PMC8189816, “Molecular Basis for the Interactions of Human Thioredoxins with Their Respective Reductases” (Oxidative Medicine and Cellular Longevity, 2021).

These are yes or no findings as the source states them, for the method shown. A result given as binding can be weak or reduced; the word gives no strength.

In the experiment the target is human thioredoxin reductase 1 (TrxR1) U498C mutant (human) (UniProt Q16881). Put plainly: other fluorescence titration; tryptophan fluorescence quenching, excitation 296 nm, 25°C, 50 mM Tris, 1 mM EDTA, pH 7.4; spectrum of the mixture against the sum of the individual spectra, at different concentrations of thioredoxin; both purified.

B1: human Trx1 C32,35S (redox-inactive active site double mutant) (natural protein, UniProt P10599 1-105, looked up)
chain: MVKQIESKTAFQEALDAAGDKLVVVDFSATWSGPSKMIKPFFHSLSEKYSNVIFLEVDVDDCQDVASECEVKCMPTFQFFKKGQKVGEFSGANKEKLEATINELV
notes: human cytosolic thioredoxin 1, both active site cysteinyl residues exchanged for seryl residues; also called hTrx1C32,35S; double cysteinyl mutant
B1: the binding entry is listed as “binds”.
